Measured values from patent publication US8722937B2 (priority 2006, dated 2014).

Test system: FabH
Assay: Recovery of FabH activity after inhibition (dialysis, dithiothreitol)
Assay type: biochemical
Settings: after inhibition by the compound

## COC1C(=O)N(SC)C1c1ccccc1Cl (stereo not shown) [Compound 2a]
  activity of FabH after dialysis: not regenerated
  activity of FabH after treatment with dithiothreitol (DTT): fully restored

## CCC(C)SN1C(=O)C(OC)C1c1ccccc1Cl (stereo not shown) [Compound 2g]
  activity of FabH after dialysis: not regenerated
  activity of FabH after treatment with dithiothreitol (DTT): fully restored
